{
  "source": "patent US20030232834A1",
  "about": "“Combination therapy for the prophylaxis and treatment of hyperlipidemic conditions and disorders” (priority 2002, published 2003)",
  "test_system": "Male beagle dogs",
  "assay": "Serum total cholesterol in beagle dogs (monotherapy and combination therapy)",
  "assay_type": "in vivo, dog",
  "note": "At least one structure is not confirmed: it was looked up by name or label, or the drawing left a doubt.",
  "data": [
    {"compound": "CC[C@H](C)C(=O)O[C@H]1C[C@H](O)C=C2C=C[C@H](C)[C@H](CC[C@@H](O)C[C@@H](O)CC(=O)O)[C@H]21", "note": "[pravastatin, Pravastatin]", "values": [
      {"measurement": "effect on serum total cholesterol", "setting": "lowest dose of pravastatin tested (0.25 mg/kg/day), any time during the three-week study", "result": "did not appear to have a significant effect"},
      {"measurement": "difference between a.m. and p.m. dosing in serum total cholesterol lowering", "setting": "pravastatin 10 mg/kg/day, four weeks", "result": "no statistically significant difference"}
    ]}
  ]
}
